Source: paper PMC5453957

Legend:
PCNA (human) = PCNA (human) (UniProt P12004); assay: pull-down; settings: AS1 buffer; pull-down: AS1 buffer (composition not given), 4 C, or ARGI buffer (50 mM Tris-HCl, 300 mM NaCl, 5 mM EDTA, 0.01% Tween 20, pH 7.5); recombinant protein; label: 5'-biotin (pull-down); single-stranded DNA
GST = GST (UniProt P08515); assay: pull-down; settings: AS1 buffer, specificity also confirmed by qPCR (Fig 3); pull-down: AS1 buffer (composition not given), 4 C, or ARGI buffer (50 mM Tris-HCl, 300 mM NaCl, 5 mM EDTA, 0.01% Tween 20, pH 7.5); recombinant protein; label: 5'-biotin (pull-down); single-stranded DNA
GFP = GFP (UniProt P42212); assay: pull-down; settings: AS1 buffer; pull-down: AS1 buffer (composition not given), 4 C, or ARGI buffer (50 mM Tris-HCl, 300 mM NaCl, 5 mM EDTA, 0.01% Tween 20, pH 7.5); recombinant protein; label: 5'-biotin (pull-down); single-stranded DNA
[1] = target: R8-PCNA (E. coli total extract) (human) (UniProt P12004); assay: pull-down (affinity purification); settings: ARGI buffer, pull-down: AS1 buffer (composition not given), 4 C, or ARGI buffer (50 mM Tris-HCl, 300 mM NaCl, 5 mM EDTA, 0.01% Tween 20, pH 7.5), protein in a lysate after overexpression, protein details: N-terminal R8, single-stranded DNA

Sequence	binding result (PCNA (human))	binding result (GST)	binding result (GFP)	binding result [1]
CATGCTTCCCCAGGGAGATGGACGGCACGTCTTTGTAATTGGTTCTGAGTTCCGTTGTGGGAGGAACATGCGTCGCAAAC [24-10 aptamer full length]	no binding	no binding	no binding	
CTTTGTAATTGGTTCTGAGTTCCGTTGTGGGAGGAACATG [AR aptamer (24-10 nt 31-70; 5'/-30 and 3'/-10)]				binds

Construct, isoform or probe ends are uncertain for at least one entry. For some of these results: Negatives hold for the conditions tested. For some of these results: At least one verdict was read from the data and is not stated in words by the source. For some of these results: Where cells or extracts were used, other partners may take part.
